The target of this assay is T1, IFT88, endogenous in NIH3T3 cells (mouse (endogenous in NIH3T3)) (UniProt Q61371).
T1 sequence: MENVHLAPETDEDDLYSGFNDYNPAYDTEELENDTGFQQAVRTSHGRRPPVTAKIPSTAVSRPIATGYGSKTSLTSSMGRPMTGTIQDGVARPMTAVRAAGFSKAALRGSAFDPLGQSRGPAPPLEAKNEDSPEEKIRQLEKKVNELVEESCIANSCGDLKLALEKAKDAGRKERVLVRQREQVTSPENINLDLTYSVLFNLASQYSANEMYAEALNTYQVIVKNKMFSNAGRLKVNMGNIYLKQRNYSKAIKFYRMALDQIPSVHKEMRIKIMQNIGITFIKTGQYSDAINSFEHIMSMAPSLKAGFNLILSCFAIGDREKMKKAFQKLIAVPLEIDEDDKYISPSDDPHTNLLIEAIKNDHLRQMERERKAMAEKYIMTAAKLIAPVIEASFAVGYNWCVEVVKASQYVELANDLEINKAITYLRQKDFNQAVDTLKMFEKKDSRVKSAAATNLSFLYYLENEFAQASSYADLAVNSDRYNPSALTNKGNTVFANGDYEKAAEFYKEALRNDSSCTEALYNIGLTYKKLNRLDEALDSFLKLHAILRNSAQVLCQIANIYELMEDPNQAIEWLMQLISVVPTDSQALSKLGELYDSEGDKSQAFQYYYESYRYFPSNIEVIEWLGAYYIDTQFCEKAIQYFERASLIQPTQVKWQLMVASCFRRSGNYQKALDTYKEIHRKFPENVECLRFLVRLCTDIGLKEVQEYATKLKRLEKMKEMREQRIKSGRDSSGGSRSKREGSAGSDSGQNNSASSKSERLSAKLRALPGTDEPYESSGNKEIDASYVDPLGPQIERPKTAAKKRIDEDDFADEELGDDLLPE
Nature of the assay: affinity purification with mass spectrometry; endogenous IFT88 precipitated with anti-IFT88 (protein A agarose, 4 °C overnight) from NIH3T3 lysate, normal IgG as control; SDS-PAGE, silver staining, unique bands excised for LC/MS-MS.

Results are given in words; binding and its absence hold for the method and conditions named. Binding seen in cells or lysates may run through a third protein. These calls come from enrichment with a bait or labelling near it, and not all partners need be listed.

B1: diacylglycerol kinase δ (DGKδ), endogenous in NIH3T3 cells (enzyme, UniProt E9PUQ8 1-1220)
chain: MAAAAGAPPPGPPQPPPPPPPEESSDSEPEAEPGSPQKLIRKVSTSGQIRQKTILKEGMLTKQNNSFQRSKRRYFKLRGRTLYYAKTAKSIIFDEVDLTDASVAESSTKNVNNSFTVITPCRKLILCADNRKEMEDWIAALKTVQNKEHFEPTQYSMDHFSGMHNWYACSHARPTYCNVCREVLSGVTSHGLSCEVCKFKAHKRCAVRATSNCKWTTLASIGKDIIEDEDGIAMPHQWLEGNLPVSAKCIVCDKTCGSVLRLQDWRCLWCKAMVHTSCKESLVMKCPLGLCKVSVIPPTALNSIDSDGFWKATCPPSCTSPLLVFVNSKSGDNQGVKFLRRFKQLLNPAQVFDLMNGGPHLGLRLFQKFDTFRILVCGGDGSVGWVLSEIDSLNLHKQCQLGVLPLGTGNDLARVLGWGSACDDDTQLPQILAKLERASTKMLDRWSVMAYETKLPRQASSSTVTEDFSEDSEVQQILFYEDSVAAHLSKILTSDQHSVVISSAKVLCETVKDFVARVGKAYEKTTESSQESEVMAKKCSVLKEKLDSLLKTLDDESQASSSLSNPPPTIAEEAEDGDGSGNICSSTGDHLVGSACPSRPQIFRPREQLMLRANSLKKAIRQIIEHTEKAVDEQNAQTQEQQGFVLGLSESEKKDLKTDNRVCTSSVHSESCVIAKGRSQRKASRAPCEKLVSKGLSLGSSASLPPGTGSRDSLPALNTKILYPSVRAGMSGSLPGGSVISRLLINADPFNAEPENLEYYTEKCVMNNYFGIGLDAKISLDFNNKRDEHPEKCRSRTKNMMWYGVLGTKELLHRTYRNLEQKVLLECDGRPIPLPSLQGIAVLNIPSYAGGTNFWGGTKEDDTFAAPSFDDKILEVVAVFGSMQMAVSRVIKLQHHRIAQCRTVKISILGDEGVPVQVDGEAWIQPPGYIRIVHKNRAQTLTRDRAFENTLKSWEDKQKCELSRPPSFSLHPEILSEEEATQMDQFGQAAGGLIHSIREIAQSHRAMEQELAHAVNASSKAMERVYGKPRTAEGLNCSFVLEMVNNIRALRSETELLLAGKMALQLDPPQKERLGAALIEMDQQLRKLTDTPWLCQPLEPGEEESLQQNVMLDLTKRSRSGKFRLVTKFKKEKNNKNKEVHSNLGGPVHLWGTEEVAAWLEHLSLCEYKDIFTRHDIRGSELLHLERRDLKDLGVTKVGHMKRILCGIKELSRSSPAAEA
Regarding B1, the binding entry was “binds”.

B2: Klra19, endogenous in NIH3T3 cells (protein, UniProt Q9JHV3 1-266)
chain: MSEPEVTYSTVRLHKSSGLQKLVRHEDTEGPREAGYRKCSGSWQLIVKALGILCFVLLITVAVLAIKIFQYGQHKQEIHEPLNYHHNFSNMQSDFNLKEEMLTNKSIDSRSGNELLESLNREQNRGYSETKTDVDSSQDTGTGVKYWFCYQTKCYYFIMNKNTWSGCKQNCQYYSLPLVKIADENELKFLQFQVIPDSYWIGLSYDKKKKQWAWIENGQSKLDMKIRKMNFKPEGCVLLSKRRLEDTNCNNSHYCICGKKLDKFPH
On to B2, for which the binding entry is “binds”.

These data come from PMC5509727.
